Experimental data taken from PubChem BioAssay AID493014 (National Center for Advancing Translational Sciences (NCATS), 2011).
About 170 (0.05%) of roughly 340,000 compounds were called active. This list was built around the results that the source calls inconclusive (neither active nor inactive); the mix of calls is not that of the screen. Calls come from the whole dose curve; as a rule, active = well fitted inhibition curve with a large enough effect in the signal ratio, with a control signal flat (not every such curve was filed as active); inconclusive = small, poorly fitted or top-dose-only effect, or effect the other way, or a change in a side signal; inactive = flat fitted curve, though single readings scatter; the % refers to the signal ratio. A potency beside an inconclusive call is a rough fit, not a confirmed value.

assay: qHTS Assay to Find Inhibitors of Chronic Active B-Cell Receptor Signaling; conditions: ABC-DLBCL IkBa-CBG/CBR reporter, luminescence ratio (green luciferase fused to IkBa over red control in TMD8 lymphoma cells), 4 h; activity change, negative = inhibition: at 46.1 µM (top of the series);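 for activity change, negative = inhibition: plate controls were basal doxycycline-induced cells for no effect and cells given 10 µM MG132 for full effect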
Summary of the method: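 Doxycycline induced both beetle luciferases in TMD8 lymphoma cells; IKK-driven degradation limits the IkappaBalpha-fused green signal, while red luminescence normalises for cell number and nonspecific effects. Compounds tested up to 46 uM, 4 hrs.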
Potency is the fitted concentration of half-maximal effect.

| SMILES | activity change, negative = inhibition | Potency |
| --- | --- | --- |
| Cc1csc(NC(=O)CSc2nc(=O)n(CCN(C)C)c3c2CCCC3)n1 | inactive | – |
| CC(=O)N1N=C(c2ccccc2OC(=O)/C=C/c2ccccc2)CC1c1ccccc1 (stereo not given) | inconclusive: 6.88% | – |
| O=C(Nc1ncc(Cc2ccccc2Cl)s1)c1ccc(-c2cccc([N+](=O)[O-])c2)o1 | inconclusive: 9.09% | – |
| COc1ccc(/C=N/NC(=O)c2ccccc2O)cc1CSc1ccccn1 | – | inconclusive: 18.4 µM [falling, single point] |
| Cc1ccnc(OC(C(=O)O)C(OCc2ccccc2)(c2ccc(F)cc2)c2ccc(F)cc2)n1 (stereo not given) | inconclusive: -16.8% | – |
| Cc1ccc(NC(=O)Cc2c(C(=O)O)n(C)c3ccccc23)cc1F | inconclusive: 6.87% | – |
| O=[N+]([O-])c1cccnc1NCCc1c[nH]c2ccccc12 | inconclusive: 0.46% | – |
| COc1cc(NC(=O)N2c3ccccc3Sc3ccccc32)c(C(=O)O)cc1OC | inconclusive: -0.763% | – |
| Cc1cc(C)n2nc(-c3cccnc3)nc2n1 | inactive | – |
| Cc1cc(C)cc(CC(Cc2nc3ccccc3[nH]2)c2nc3ccccc3[nH]2)c1 (stereo not given) | inconclusive: -0.936% | – |
| C=CCSc1n[nH]c(-c2ccc(OCCC)cc2)n1 | – | inconclusive: 29.1 µM [falling, single point] |
| CC(=O)N(CCC1(C(C)C)CCOC(C)(C)C1)C(C)c1cccs1 (stereo not given) | inconclusive: 6.52% | – |
| c1ccc(-c2nc(NCc3cccnc3)c3ccccc3n2)cc1 | inconclusive: 6.69% | – |
| Cc1nn(-c2nc3ccccc3s2)c(C)c1Oc1ccccc1O | – | inconclusive: 4.61 µM [rising, full curve] |
| O=C(c1ccc(S(=O)(=O)Cc2ccccc2Cl)c([N+](=O)[O-])c1)N1CCOCC1 | – | inconclusive: 35.5 µM [falling, single point] |
| C[C@]12c3[nH]c4ccccc4c3CCN1C(=O)C(CC(=O)NCCCn1ccnc1)C[C@@H]2C(=O)N1CCCCC1 (stereo not given in full) | inactive | – |
| COc1cccc(CN2CCN(Cc3ccc(C#CC(C)(C)O)s3)CC2CCO)c1 (stereo not given) | – | inconclusive: 35.5 µM [falling, single point] |
| COC(=O)N1CCN(c2ccc(C)c(C)c2)CC1 | inconclusive: 10.4% | – |
| O=C1C(NS(=O)(=O)c2cccs2)=C(N2CCOCC2)C(=O)c2ccccc21 | inconclusive: 11.4% | – |
| COCCN(C(=O)c1cc(OC)c(OC)c(OC)c1)c1c(N)n(Cc2ccccc2)c(=O)[nH]c1=O | inactive | – |
| C[C@H]1CCC[C@]2(C)C[C@H]3OC(=O)C(CN4CCCCCC4)[C@H]3C=C12 (stereo not given in full) | – | inconclusive: 22.4 µM [falling, single point] |
| CCOc1cc(S(=O)(=O)NCCc2ccc(OC)c(OC)c2)c(OCC)cc1-n1cnnn1 | inconclusive: -16.4% | – |
| CSc1nsc2nc(=O)c(/C=C3\C(C)=Nc4ccccc43)c(N)n12 | inconclusive: 4.03% | – |
| Cc1ccnc(Nc2nc3ccccc3o2)n1 | – | inconclusive: 23.1 µM [falling, partial curve] |
| Cc1ccc(Cl)cc1-n1ncc2c(Nc3ccc4c(c3)OCCO4)ncnc21 | inconclusive: 26% | – |

| SMILES | activity change, negative = inhibition | Potency |
| --- | --- | --- |
| Cc1ccc2nc(NC(=O)CN3C(=O)NC4(CCCCC4)C3=O)sc2c1 | inconclusive: 7.34% | – |
| NC(=O)C1CCN(c2ncnc3c(-c4ccccc4)nsc23)CC1 | inconclusive: 6.6% | – |
| O=Cc1sc(Nc2ccccc2)nc1Cl | inconclusive: 1.52% | – |
| Fc1cccc(NC(=S)NCCc2ccccc2)c1 | – | inconclusive: 23.1 µM [falling, single point] |
| CC1CCN(CC(O)COc2cccc(F)c2)CC1 (stereo not given) | inactive | – |
| Cc1cccc(/C=N\NC(=O)c2ccc(Cl)cc2)c1O | – | inconclusive: 8.91 µM [falling, partial curve, poor fit] |
| Cc1nn(-c2ccccc2)c(C)c1C(=O)OCC(=O)N(C)c1ccccc1 | inconclusive: -2.3% | – |
| COc1ccc(NC(=O)Nc2ccccc2OC)cc1 | – | inconclusive: 18.4 µM [falling, partial curve] |
| CCOc1cccc(-c2c(C(=O)N/N=C/c3c(F)cccc3Cl)nnn2-c2nonc2N)c1 | inconclusive: -2.38% | – |
| COc1ccc(Cn2c3nc4ccccc4nc3c3c(=O)n(Cc4ccco4)cnc32)cc1 | – | inconclusive: 2.59 µM [rising, full curve, poor fit] |
| O=C(Oc1cccccc1=O)c1ccccc1 | – | inconclusive: 35.5 µM [falling, single point] |
| Cc1cc(C)c(C(=O)Nc2ccc(Br)c(C(F)(F)F)c2)c(C)c1 | inconclusive: 7.41% | – |
| CCCCNc1nc(N)nc(-c2cc(Cl)ccc2O)n1 | inconclusive: 14.5% | – |
| Cn1c(SCC(=O)Nc2cccc(Br)c2)nnc1-c1cc2ccccc2o1 | – | inconclusive: 29.1 µM [rising, partial curve, poor fit] |
| CCCCCCC(C)NC(=S)Nc1cc(S(=O)(=O)N(C)C)ccc1C (stereo not given) | inactive | – |
| CCOC(=O)c1cc(-c2ccccc2)n(CC(=O)Nc2ccccc2OCC)c1C | inconclusive: 0.25% | – |
| Cc1nc(NC(=O)COC(=O)C2CC2C)c(Cl)cc1Cl (stereo not given) | inconclusive: -0.005% | – |
| CCOC(=O)c1cnc(-n2nc(C)cc2C)nc1NC | – | inconclusive: 35.5 µM [falling, single point] |
| O=C(c1ccc(COc2c(F)c(F)cc(F)c2F)o1)N1CCN(c2ccccc2)CC1 | inactive | – |
| O=c1[nH]c2ccccc2s1 | inconclusive: 1.87% | – |
| COc1cc(/C=N/NS(=O)(=O)c2ccc3ccccc3c2)ccc1OCc1ccc(C(=O)O)cc1 | – | inconclusive: 7.08 µM [rising, full curve, poor fit] |
| C/C(=N\NC(=S)NC(C)C)c1ccccc1OC(F)F | – | inconclusive: 25.1 µM [falling, single point] |
| Cc1ccc(NC(=O)C(NCc2ccccn2)c2ccccc2)cc1 (stereo not given) | – | inconclusive: 31.6 µM [rising, single point] |
| COc1ccc(-c2csc3ncnc(N4CCN(c5ccccc5[N+](=O)[O-])CC4)c23)cc1 | inactive | – |
| C=CCN(CC=C)S(=O)(=O)c1ccc(C(=O)Nc2nc3c(s2)CCc2ccccc2-3)cc1 | inconclusive: -0.0459% | – |

Retrieved one by one from the entries so far (three):

| SMILES | activity change, negative = inhibition | Potency |
| --- | --- | --- |
| NC(=O)C1CCN(c2ncnc3c(-c4ccccc4)nsc23)CC1 | inconclusive: 6.6% | – |
| C/C(=N\NC(=S)NC(C)C)c1ccccc1OC(F)F | – | inconclusive: 25.1 µM [falling, single point] |
| Fc1cccc(NC(=S)NCCc2ccccc2)c1 | – | inconclusive: 23.1 µM [falling, single point] |
